From the supplement of paper PMC10689618
Where a name gives a salt, the structure may show the parent alone. The list shows a part of the results. Many values rest on one well or one pass, so single values are uncertain.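 Primary human fetal astrocytes engulfed labelled rat cortical synaptosomes, measured as a red/green ratio corrected for calcein live-cell signal and scaled to the plate median. Toxicity meant calcein falling over 30%; decreased phagocytosis meant below 70% of median above 5 µM.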

Columns and labels:
Details in all cases: 24 h
Human fetal astrocytes [1] = test: loss of total cells relative to no-compound high-control median (toxicity); higher = more toxic (fewer cells)
Human fetal astrocytes [2] = test: synaptosome phagocytosis (pHrodo/calcein intensity ratio) relative to plate median of data wells; higher = more phagocytosis
Human fetal astrocytes [3] = test: loss of total cells relative to no-compound high-control median (toxicity); higher = more toxic (fewer cells); remark: listed apart in the source
Human fetal astrocytes [4] = test: synaptosome phagocytosis (pHrodo/calcein intensity ratio) relative to plate median of data wells; higher = more phagocytosis; remark: listed apart in the source

Compound | loss of total cells (Human fetal astrocytes [1]; 1.39 µM) [%] | loss of total cells (Human fetal astrocytes [1]; 2.78 µM) [%] | loss of total cells (Human fetal astrocytes [1]; 5.56 µM) [%] | loss of total cells (Human fetal astrocytes [1]; 11.11 µM) [%] | loss of total cells (Human fetal astrocytes [1]; 22.22 µM) [%] | synaptosome phagocytosis (Human fetal astrocytes [2]; 1.39 µM) [%] | synaptosome phagocytosis (Human fetal astrocytes [2]; 2.78 µM) [%] | synaptosome phagocytosis (Human fetal astrocytes [2]; 5.56 µM) [%] | synaptosome phagocytosis (Human fetal astrocytes [2]; 11.11 µM) [%] | synaptosome phagocytosis (Human fetal astrocytes [2]; 22.22 µM) [%] | loss of total cells (Human fetal astrocytes [3]; 1.39 µM) [%] | loss of total cells (Human fetal astrocytes [3]; 2.78 µM) [%] | loss of total cells (Human fetal astrocytes [3]; 5.56 µM) [%] | loss of total cells (Human fetal astrocytes [3]; 11.11 µM) [%] | loss of total cells (Human fetal astrocytes [3]; 22.22 µM) [%] | synaptosome phagocytosis (Human fetal astrocytes [4]; 1.39 µM) [%] | synaptosome phagocytosis (Human fetal astrocytes [4]; 2.78 µM) [%] | synaptosome phagocytosis (Human fetal astrocytes [4]; 5.56 µM) [%] | synaptosome phagocytosis (Human fetal astrocytes [4]; 11.11 µM) [%] | synaptosome phagocytosis (Human fetal astrocytes [4]; 22.22 µM) [%]
CCN(CC)CCNC(=O)c1ccc(NC(C)=O)cc1 [N-Acetylprocainamide hydrochloride] | -7.6 | 4.7 | 29 | 36.8 | -22.6 | 106 | 90.9 | 144 | 81.6 | 106 | – | – | – | – | – | – | – | – | – | –
CC(C)(CO)[C@@H](O)C(=O)NCCC(=O)NCCSSCCNC(=O)CCNC(=O)[C@H](O)C(C)(C)CO | -14.1 | 11.2 | -1.4 | -9.6 | 21.2 | 87.7 | 131 | 103 | 106 | 40.6 | – | – | – | – | – | – | – | – | – | –
c1ccc2c(CC3=NCCN3)cccc2c1 [Naphazoline hydrochloride] | – | – | – | – | – | – | – | – | – | – | -31.8 | 11.3 | -11.7 | -3.8 | 27.1 | 88.7 | 101 | 92.8 | 103 | 83.2
Fc1ccc(C(c2ccc(F)cc2)N2CCN(C/C=C/c3ccccc3)CC2)cc1 [Flunarizine dihydrochloride] | – | – | – | – | – | – | – | – | – | – | 5.4 | -29.9 | -15.6 | 13 | 33.6 | 84.6 | 75.1 | 76.4 | 91.7 | 57.6
CC(C)C[C@H](NC(=O)[C@@H](O)[C@H](N)Cc1ccccc1)C(=O)O [Bestatin hydrochloride] | – | – | – | – | – | – | – | – | – | – | -13.9 | -16.5 | -26.3 | -20.2 | 3.4 | 130 | 88 | 72.7 | 98.6 | 94
CC[C@@H]1Cc2cc(O)ccc2C2=C1c1ccc(O)cc1C[C@H]2CC [(R,R)-cis-Diethyl tetrahydro-2,8-chrysenediol] | – | – | – | – | – | – | – | – | – | – | 13 | -15.4 | 10.7 | 14.8 | 24 | 98.9 | 124 | 121 | 101 | 68.8
OCCN1CCN(CCCN2c3ccccc3Sc3ccc(C(F)(F)F)cc32)CC1 [Fluphenazine dihydrochloride] | – | – | – | – | – | – | – | – | – | – | -0.4 | -10.3 | 3.3 | -3.1 | 12 | 104 | 93.6 | 84.5 | 49 | 47.3
CCc1c(C)[nH]c2c1C(=O)C(CN1CCOCC1)CC2 (stereo not given) [Molindone hydrochloride] | – | – | – | – | – | – | – | – | – | – | -2.4 | 3.2 | -0.5 | 14.3 | 13.1 | 107 | 106 | 128 | 114 | 127
Nc1nccc2c1ncn2[C@@H]1O[C@H](CO)[C@@H](O)[C@H]1O [3-deazaadenosine] | – | – | – | – | – | – | – | – | – | – | 12.1 | -1.7 | -5.8 | -6.7 | 4 | 108 | 104 | 116 | 104 | 122
CN1CCc2c(cc(O)c(O)c2Cl)C(c2cccc(Cl)c2)C1 (stereo not given) | – | – | – | – | – | – | – | – | – | – | 7.8 | -0.3 | -24.7 | -14.2 | -3.3 | 71.7 | 91.6 | 90.2 | 80.2 | 101
c1ccc(-c2ccccn2)nc1 [2,2'-Bipyridyl] | – | – | – | – | – | – | – | – | – | – | 6.3 | -4.3 | -0.8 | 4 | -0.8 | 109 | 124 | 71.7 | 92.3 | 119
COc1cc2c(cc1OC)[C@@H](c1ccccc1)CN(C)CC2 | – | – | – | – | – | – | – | – | – | – | -11.5 | 8.7 | 0.6 | -9.6 | -7.4 | 112 | 102 | 95.7 | 99.8 | 79.4
Cc1ccccc1/C=C/C1=NCCN1 [Metrazoline oxalate] | – | – | – | – | – | – | – | – | – | – | -11.8 | -10.4 | 4.2 | -3.8 | -0.9 | 108 | 98.1 | 92.1 | 101 | 84
CO[C@@]1(NC(=O)CSCC#N)C(=O)N2C(C(=O)O)=C(CSc3nnnn3C)CS[C@@H]21 [Cefmetazole sodium] | – | – | – | – | – | – | – | – | – | – | -12.5 | -15.9 | -21.7 | -6.7 | -2.6 | 89.4 | 98.9 | 98.8 | 103 | 120
OCc1cc(C(O)CNCCCCCCOCCCCc2ccccc2)ccc1O (stereo not given) [Salmeterol xinafoate] | – | – | – | – | – | – | – | – | – | – | -6.5 | -20.7 | -13.5 | -22.6 | -17.3 | 92 | 82.7 | 61.5 | 72.5 | 43.1
CC(=O)NC(C(=O)O)C(C)(C)SN=O (stereo not given) [S-Nitroso-N-acetylpenicillamine] | – | – | – | – | – | – | – | – | – | – | -15.6 | 7.7 | -14.6 | -3.8 | 11.2 | 131 | 102 | 117 | 104 | 129
Fc1ccc(CN(C2=NCCN2)c2c(Cl)cccc2Cl)cc1 [IMID-4F hydrochloride] | – | – | – | – | – | – | – | – | – | – | -3.8 | -30.8 | -4.1 | 1.3 | -6.4 | 102 | 96.4 | 97 | 82.2 | 80.2
N/C(=N\C(=O)c1nc(Cl)c(N)nc1N)NCc1ccccc1 [Benzamil hydrochloride] | – | – | – | – | – | – | – | – | – | – | -14.3 | 3.6 | -22.6 | -5.8 | 11.7 | 103 | 122 | 74.4 | 84.3 | 94.1
CCN(CC)CCCCCCCCOC(=O)c1cc(OC)c(OC)c(OC)c1 [TMB-8 hydrochloride] | – | – | – | – | – | – | – | – | – | – | 4.4 | -14.1 | -27.2 | 4 | 17.7 | 121 | 110 | 94.5 | 113 | 102

Complete entries, quoted from the list. Values in the order: loss of total cells (Human fetal astrocytes [1]; 1.39 µM) [%]	loss of total cells (Human fetal astrocytes [1]; 2.78 µM) [%]	loss of total cells (Human fetal astrocytes [1]; 5.56 µM) [%]	loss of total cells (Human fetal astrocytes [1]; 11.11 µM) [%]	loss of total cells (Human fetal astrocytes [1]; 22.22 µM) [%]	synaptosome phagocytosis (Human fetal astrocytes [2]; 1.39 µM) [%]	synaptosome phagocytosis (Human fetal astrocytes [2]; 2.78 µM) [%]	synaptosome phagocytosis (Human fetal astrocytes [2]; 5.56 µM) [%]	synaptosome phagocytosis (Human fetal astrocytes [2]; 11.11 µM) [%]	synaptosome phagocytosis (Human fetal astrocytes [2]; 22.22 µM) [%]	loss of total cells (Human fetal astrocytes [3]; 1.39 µM) [%]	loss of total cells (Human fetal astrocytes [3]; 2.78 µM) [%]	loss of total cells (Human fetal astrocytes [3]; 5.56 µM) [%]	loss of total cells (Human fetal astrocytes [3]; 11.11 µM) [%]	loss of total cells (Human fetal astrocytes [3]; 22.22 µM) [%]	synaptosome phagocytosis (Human fetal astrocytes [4]; 1.39 µM) [%]	synaptosome phagocytosis (Human fetal astrocytes [4]; 2.78 µM) [%]	synaptosome phagocytosis (Human fetal astrocytes [4]; 5.56 µM) [%]	synaptosome phagocytosis (Human fetal astrocytes [4]; 11.11 µM) [%]	synaptosome phagocytosis (Human fetal astrocytes [4]; 22.22 µM) [%]
CC(C)(CO)[C@@H](O)C(=O)NCCC(=O)NCCSSCCNC(=O)CCNC(=O)[C@H](O)C(C)(C)CO is listed as -14.1	11.2	-1.4	-9.6	21.2	87.7	131	103	106	40.6	–	–	–	–	–	–	–	–	–	–
Fc1ccc(C(c2ccc(F)cc2)N2CCN(C/C=C/c3ccccc3)CC2)cc1 [Flunarizine dihydrochloride] is listed as –	–	–	–	–	–	–	–	–	–	5.4	-29.9	-15.6	13	33.6	84.6	75.1	76.4	91.7	57.6
